Earlier results as cited in patent US20110251160A1 (priority 2008, published 2011).
Like-named read-outs stand apart in the source and are kept apart here. For at least one compound, name, drawing or mass did not settle the structure.

Assays:
AF patients [1] = details: SPORTIF III (2003), cited from earlier work
AF patients [2] = details: SPORTIF V (2005), cited from earlier work
[3] = ximelagatran 36 mg b.i.d. vs. warfarin

CCOC(=O)CN[C@@H](C(=O)N1CC[C@H]1C(=O)NCc1ccc(/C(N)=N\O)cc1)C1CCCCC1 [ximelagatran]
Stroke and systemic embolism (per 100 patient years) (AF patients [1]; [3]): 1.6%
Myocardial Infarction (AF patients [1]; ximelagatran vs. warfarin): 1.1%
Stroke and systemic embolism (per 100 patient years) (AF patients [2]; [3]): 1.6%
Myocardial Infarction (AF patients [2]; ximelagatran vs. warfarin): 1.0%
